Test results: paper doi:10.1101/2025.03.27.645713
The exact form of at least one protein or probe is not confirmed.

Test system: aCcr1
Experiment: EMSA
Details: 5 mM MgCl2, 0, 0.5 and 1 (unit lost in print, probably uM) aCcr1

Sequence: AGATAATACTCCGTTTTTTCTCTAACAATAGATTAACGTTAAAGAAGCCTGCTAACGATTATATTTTATTCTGCTAAGTATTACCGTAGAGTGATCTGTA (double strand) [Pcran1 (cran1 promoter probe, 100 bp)]
- binding result: binds
